Source: PMC5671937
No constants are given. Whether binding was seen depends on the method and setting. Binding seen in cells or lysates may run through a third protein. Some binding calls cover weakened binding; strength is not graded here.

Sequences of proteins named here, by UniProt entry; tags and fusion partners are left off.
UniProt P06493: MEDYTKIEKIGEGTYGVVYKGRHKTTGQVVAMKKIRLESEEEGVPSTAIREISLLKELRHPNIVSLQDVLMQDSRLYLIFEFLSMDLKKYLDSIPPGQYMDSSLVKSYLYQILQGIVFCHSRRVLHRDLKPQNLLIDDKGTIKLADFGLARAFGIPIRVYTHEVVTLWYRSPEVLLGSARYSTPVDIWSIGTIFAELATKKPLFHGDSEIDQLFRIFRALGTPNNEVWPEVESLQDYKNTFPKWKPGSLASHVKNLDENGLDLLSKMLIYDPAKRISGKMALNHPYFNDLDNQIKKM
UniProt Q96CX2: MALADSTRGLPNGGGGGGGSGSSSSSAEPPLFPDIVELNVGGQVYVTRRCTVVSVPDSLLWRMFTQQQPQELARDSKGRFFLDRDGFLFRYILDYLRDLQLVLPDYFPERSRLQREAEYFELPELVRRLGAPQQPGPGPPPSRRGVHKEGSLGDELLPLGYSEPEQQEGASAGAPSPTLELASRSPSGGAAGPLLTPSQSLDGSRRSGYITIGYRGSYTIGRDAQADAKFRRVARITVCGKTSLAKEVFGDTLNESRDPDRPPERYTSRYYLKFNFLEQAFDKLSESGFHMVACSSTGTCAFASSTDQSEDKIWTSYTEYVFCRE

How the values were obtained:
[1] = target: cyclin-dependent kinase 1 (CDK1) (human (endogenous in HeLa)) (UniProt P06493); assay: condition: only cells treated with VX-680 (0.5 μM, 24 h); co-IP; HeLa cells treated with the Aurora kinase inhibitor VX-680 (0.5 μM, 24 h); lysate immunoprecipitated, immunoblot
[2] = target: T1, cell division cycle 25B (CDC25B) (human (endogenous in HeLa)) (UniProt P30305); assay: co-IP; HeLa cells synchronized to M phase, whole-cell lysate, primary antibody overnight at 4 °C, protein A/G Sepharose beads, immunoblot; in some panels cells transfected with wild-type or S243A KCTD12 plasmid (Figure 7c) or treated with DMSO or VX-680 0.5 μM, 24 h (Figure 7b, d)
T1 sequence: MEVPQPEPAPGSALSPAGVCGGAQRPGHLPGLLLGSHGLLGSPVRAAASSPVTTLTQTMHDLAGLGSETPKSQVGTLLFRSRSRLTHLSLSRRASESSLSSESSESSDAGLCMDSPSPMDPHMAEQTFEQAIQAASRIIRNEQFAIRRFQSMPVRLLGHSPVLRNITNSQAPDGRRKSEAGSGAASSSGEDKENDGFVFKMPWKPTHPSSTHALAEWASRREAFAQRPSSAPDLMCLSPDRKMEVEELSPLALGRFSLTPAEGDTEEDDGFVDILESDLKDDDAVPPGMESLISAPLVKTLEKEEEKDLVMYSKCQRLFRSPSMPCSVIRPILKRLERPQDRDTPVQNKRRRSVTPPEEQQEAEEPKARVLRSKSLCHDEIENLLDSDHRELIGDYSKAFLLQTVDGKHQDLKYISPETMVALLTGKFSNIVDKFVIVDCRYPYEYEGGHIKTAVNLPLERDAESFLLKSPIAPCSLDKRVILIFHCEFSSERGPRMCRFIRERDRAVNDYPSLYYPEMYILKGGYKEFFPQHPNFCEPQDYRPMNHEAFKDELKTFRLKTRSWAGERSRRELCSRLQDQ

[3] = target: cyclin-dependent kinase 1 (CDK1) (human (endogenous in HeLa)) (UniProt P06493); assay: as above

Substance: potassium channel tetramerization domain containing 12 (KCTD12) (from UniProt Q96CX2 1-325)
- binding [1]: no binding
- binding [2]: binds
- binding [3]: binds
